Reference: the supplement of paper PMC10849652
Some of the results follow. Residues, ends and D or L forms follow the SMILES beside them. *: point of attachment. Cbz = O=C(OCc1ccccc1)*

Amino acid sequences for entries named in this document (tags omitted). A change or cut given only in a name is not applied to a line headed by its entry.
UniProt Q8N5P1: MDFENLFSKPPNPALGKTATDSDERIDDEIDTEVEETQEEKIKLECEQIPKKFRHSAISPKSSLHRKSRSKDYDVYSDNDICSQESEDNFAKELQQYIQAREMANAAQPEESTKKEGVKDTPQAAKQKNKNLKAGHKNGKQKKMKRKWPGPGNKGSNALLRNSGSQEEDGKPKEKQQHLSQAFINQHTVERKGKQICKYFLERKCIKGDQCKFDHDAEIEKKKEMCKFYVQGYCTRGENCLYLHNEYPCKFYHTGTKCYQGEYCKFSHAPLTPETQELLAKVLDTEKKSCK
UniProt Q9C0B5: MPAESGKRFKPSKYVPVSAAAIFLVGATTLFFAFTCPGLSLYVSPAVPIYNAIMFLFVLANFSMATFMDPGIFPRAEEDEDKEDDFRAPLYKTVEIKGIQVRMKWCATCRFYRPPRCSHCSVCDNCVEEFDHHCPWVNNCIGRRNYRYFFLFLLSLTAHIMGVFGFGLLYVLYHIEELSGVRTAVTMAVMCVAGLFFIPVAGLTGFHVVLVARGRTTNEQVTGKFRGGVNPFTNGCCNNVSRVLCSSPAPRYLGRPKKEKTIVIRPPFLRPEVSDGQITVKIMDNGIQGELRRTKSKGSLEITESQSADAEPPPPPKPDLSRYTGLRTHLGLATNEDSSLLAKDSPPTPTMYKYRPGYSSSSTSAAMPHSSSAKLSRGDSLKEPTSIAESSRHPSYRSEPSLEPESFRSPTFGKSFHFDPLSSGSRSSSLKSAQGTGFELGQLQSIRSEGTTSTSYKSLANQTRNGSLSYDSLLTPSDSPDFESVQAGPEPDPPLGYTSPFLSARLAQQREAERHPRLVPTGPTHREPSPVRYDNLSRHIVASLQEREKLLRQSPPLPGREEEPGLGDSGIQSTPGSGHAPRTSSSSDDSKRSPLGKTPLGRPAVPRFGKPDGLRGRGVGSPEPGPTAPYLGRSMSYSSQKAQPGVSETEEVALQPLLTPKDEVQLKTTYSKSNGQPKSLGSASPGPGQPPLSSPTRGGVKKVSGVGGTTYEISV
UniProt Q8NBI6: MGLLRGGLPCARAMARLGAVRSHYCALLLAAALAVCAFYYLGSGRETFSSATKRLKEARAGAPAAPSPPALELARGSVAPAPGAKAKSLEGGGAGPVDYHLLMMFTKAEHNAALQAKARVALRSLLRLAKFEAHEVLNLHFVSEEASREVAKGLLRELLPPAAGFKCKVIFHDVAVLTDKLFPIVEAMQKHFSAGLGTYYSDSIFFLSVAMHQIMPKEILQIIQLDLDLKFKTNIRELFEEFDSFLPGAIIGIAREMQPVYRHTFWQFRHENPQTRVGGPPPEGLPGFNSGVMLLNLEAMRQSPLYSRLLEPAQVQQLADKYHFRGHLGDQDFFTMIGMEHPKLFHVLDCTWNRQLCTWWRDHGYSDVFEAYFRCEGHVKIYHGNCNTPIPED
UniProt Q9NQH7: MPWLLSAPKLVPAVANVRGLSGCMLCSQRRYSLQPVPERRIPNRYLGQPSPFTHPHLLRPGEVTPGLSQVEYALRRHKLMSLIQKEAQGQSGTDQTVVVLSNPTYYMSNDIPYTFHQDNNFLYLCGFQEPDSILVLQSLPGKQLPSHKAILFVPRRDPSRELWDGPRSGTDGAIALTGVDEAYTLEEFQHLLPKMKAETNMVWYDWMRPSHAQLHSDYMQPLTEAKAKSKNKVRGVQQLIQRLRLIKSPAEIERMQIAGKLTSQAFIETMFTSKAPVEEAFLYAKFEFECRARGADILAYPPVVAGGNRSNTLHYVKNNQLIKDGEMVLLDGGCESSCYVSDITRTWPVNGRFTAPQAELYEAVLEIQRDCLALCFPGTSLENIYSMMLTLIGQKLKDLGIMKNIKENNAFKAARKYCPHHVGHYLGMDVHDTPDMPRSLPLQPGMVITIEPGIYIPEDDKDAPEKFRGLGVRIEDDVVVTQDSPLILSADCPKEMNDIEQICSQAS
UniProt Q96NC0: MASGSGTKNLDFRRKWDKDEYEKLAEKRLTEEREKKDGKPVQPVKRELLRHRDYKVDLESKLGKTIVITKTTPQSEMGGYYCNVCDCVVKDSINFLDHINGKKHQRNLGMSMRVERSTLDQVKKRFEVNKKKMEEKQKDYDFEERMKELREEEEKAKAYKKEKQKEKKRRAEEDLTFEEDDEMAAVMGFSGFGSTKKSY
UniProt Q9ULJ3: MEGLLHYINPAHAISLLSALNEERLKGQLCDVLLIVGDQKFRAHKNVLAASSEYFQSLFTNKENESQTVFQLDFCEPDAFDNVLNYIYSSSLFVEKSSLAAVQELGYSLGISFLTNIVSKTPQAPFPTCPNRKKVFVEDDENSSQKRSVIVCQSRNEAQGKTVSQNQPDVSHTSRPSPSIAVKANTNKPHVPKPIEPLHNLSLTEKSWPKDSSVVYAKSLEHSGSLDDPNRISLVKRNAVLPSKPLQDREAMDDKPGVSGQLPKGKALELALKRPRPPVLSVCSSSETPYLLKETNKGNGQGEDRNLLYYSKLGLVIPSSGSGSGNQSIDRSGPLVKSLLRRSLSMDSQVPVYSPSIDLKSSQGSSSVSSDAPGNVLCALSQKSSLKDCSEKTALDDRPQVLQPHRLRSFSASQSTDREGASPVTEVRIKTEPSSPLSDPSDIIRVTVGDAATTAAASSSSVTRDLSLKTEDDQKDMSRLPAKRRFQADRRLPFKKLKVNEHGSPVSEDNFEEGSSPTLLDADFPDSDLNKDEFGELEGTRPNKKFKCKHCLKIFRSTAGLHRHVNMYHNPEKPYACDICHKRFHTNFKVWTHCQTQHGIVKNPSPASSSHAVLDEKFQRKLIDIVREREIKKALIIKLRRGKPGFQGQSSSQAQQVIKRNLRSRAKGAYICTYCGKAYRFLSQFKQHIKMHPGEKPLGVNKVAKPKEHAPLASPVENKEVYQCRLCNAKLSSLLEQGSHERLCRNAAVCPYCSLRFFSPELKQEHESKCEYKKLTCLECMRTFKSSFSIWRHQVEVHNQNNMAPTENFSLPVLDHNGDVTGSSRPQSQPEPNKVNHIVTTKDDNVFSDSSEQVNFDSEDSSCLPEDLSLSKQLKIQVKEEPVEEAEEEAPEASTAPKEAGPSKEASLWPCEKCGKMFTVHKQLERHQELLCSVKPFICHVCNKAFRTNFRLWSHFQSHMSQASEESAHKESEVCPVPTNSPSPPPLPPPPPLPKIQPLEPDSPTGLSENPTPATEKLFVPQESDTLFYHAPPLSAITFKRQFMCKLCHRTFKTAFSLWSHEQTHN
UniProt Q9NYG2: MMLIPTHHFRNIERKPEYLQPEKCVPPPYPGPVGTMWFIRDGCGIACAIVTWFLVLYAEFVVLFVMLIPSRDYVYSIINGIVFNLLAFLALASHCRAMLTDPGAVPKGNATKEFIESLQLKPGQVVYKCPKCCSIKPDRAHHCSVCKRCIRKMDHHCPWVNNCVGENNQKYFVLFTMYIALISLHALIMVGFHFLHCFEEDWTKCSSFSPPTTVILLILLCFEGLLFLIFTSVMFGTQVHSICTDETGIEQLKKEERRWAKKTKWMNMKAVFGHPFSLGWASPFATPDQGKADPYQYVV
UniProt Q5W0Z9: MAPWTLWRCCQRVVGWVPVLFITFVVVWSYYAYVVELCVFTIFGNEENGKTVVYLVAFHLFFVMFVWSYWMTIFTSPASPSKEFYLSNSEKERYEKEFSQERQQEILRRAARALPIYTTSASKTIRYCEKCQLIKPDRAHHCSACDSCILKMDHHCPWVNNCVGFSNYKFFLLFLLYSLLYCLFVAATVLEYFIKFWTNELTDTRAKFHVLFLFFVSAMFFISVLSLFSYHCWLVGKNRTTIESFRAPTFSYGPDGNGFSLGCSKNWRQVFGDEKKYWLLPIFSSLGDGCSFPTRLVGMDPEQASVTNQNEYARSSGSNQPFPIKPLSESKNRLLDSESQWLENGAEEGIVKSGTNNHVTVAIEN
UniProt O43670: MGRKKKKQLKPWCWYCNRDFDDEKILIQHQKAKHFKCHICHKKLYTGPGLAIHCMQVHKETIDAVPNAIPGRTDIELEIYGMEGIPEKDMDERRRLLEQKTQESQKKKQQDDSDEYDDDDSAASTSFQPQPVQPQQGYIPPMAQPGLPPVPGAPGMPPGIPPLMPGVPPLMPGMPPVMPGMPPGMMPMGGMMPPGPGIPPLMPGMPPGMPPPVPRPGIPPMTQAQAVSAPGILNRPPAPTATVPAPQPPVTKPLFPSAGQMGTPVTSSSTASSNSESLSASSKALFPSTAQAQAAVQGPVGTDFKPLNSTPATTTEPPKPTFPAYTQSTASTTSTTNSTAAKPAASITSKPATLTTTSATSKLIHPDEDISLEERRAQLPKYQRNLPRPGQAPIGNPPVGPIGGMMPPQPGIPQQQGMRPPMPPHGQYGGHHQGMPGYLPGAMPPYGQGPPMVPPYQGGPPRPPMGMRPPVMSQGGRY
UniProt Q8TCF1: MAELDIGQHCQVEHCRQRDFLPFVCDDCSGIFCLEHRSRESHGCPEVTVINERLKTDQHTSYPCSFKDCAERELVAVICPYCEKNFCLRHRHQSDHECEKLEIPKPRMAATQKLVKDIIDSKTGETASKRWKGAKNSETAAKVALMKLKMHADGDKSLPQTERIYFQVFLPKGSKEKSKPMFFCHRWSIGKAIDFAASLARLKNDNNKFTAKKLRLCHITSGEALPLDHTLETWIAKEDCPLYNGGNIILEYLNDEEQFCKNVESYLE
UniProt Q7Z7L7: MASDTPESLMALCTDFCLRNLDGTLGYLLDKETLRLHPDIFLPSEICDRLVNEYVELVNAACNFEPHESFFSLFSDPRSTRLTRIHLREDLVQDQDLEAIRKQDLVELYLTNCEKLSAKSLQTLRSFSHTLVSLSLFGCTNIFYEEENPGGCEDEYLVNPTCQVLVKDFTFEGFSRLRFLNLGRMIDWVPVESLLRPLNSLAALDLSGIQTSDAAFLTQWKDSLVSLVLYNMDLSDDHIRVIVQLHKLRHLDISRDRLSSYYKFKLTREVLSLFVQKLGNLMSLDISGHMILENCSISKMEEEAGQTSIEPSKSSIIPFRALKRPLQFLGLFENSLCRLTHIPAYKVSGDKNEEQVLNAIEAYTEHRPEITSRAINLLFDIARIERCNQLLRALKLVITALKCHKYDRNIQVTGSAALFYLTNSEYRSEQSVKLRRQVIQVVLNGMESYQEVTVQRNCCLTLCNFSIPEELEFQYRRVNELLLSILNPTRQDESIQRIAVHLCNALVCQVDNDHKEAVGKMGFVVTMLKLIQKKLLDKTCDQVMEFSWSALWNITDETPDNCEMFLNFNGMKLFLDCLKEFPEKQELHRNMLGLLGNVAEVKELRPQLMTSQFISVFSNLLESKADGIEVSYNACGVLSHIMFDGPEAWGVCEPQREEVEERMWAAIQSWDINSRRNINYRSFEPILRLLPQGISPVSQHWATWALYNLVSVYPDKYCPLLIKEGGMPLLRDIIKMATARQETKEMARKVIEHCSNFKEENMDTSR
UniProt Q96KR1: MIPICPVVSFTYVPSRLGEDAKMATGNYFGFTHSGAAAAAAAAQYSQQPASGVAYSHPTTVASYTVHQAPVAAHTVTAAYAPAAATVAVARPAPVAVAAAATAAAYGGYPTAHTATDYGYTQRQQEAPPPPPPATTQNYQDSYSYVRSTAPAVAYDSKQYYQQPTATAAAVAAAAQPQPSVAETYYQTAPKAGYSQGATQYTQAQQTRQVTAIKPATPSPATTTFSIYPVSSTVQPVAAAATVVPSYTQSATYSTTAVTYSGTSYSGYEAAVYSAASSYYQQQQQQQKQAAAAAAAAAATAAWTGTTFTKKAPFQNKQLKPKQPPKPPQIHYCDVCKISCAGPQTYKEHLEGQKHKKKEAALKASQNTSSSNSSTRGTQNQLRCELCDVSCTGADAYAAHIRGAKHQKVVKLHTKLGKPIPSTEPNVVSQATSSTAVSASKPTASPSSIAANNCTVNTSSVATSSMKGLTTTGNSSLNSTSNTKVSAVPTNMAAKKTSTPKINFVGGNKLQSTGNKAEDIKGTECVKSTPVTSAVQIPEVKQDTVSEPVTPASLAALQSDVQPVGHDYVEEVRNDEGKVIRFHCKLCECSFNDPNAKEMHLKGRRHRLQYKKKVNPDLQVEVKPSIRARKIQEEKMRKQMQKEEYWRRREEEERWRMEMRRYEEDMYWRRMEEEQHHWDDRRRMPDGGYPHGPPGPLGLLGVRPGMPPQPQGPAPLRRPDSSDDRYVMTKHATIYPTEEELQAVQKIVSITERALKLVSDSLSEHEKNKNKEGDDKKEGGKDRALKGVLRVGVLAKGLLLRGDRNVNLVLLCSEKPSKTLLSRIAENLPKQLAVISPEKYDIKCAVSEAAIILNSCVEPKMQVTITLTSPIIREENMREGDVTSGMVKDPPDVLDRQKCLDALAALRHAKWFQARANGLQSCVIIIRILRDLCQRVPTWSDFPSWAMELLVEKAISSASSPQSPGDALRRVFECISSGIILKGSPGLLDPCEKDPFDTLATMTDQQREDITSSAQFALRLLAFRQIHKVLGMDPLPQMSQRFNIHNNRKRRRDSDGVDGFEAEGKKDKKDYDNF

How the values were obtained:
Assay in all cases: log2 fold change, soluble protein after heating vs DMSO (PISA); higher = thermal stabilisation; K562 cells, 10 uM, 30 min; active = over 0.2 and 3.5 SD of the protein, either way, in both replicates (recomputed)
erlotinib = compound: C#Cc1cccc(Nc2ncnc3cc(OCCOC)c(OCCOC)cc23)c1 [erlotinib]
In short: (§1)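 Quantification of soluble protein used TMTpro 16plex LC-MS/MS, with channel sums equalised. Samples were the supernatant after 21,000xg for 90 min of pooled aliquots from K562 cells (2×10^6 cells/mL) treated with 10 μM compound for 30 min, heated for 3 min over 48°C-58°C, and extracted in PBS with 0.5% NP-40 at 4°C. Values, from duplicates, describe thermal stability against control samples on a log2 fold-change scale.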

[1] = compound: C/C(=N\NC(=O)C1=CC(=CC=C1)S(=O)(=O)N2CCOCC2)/C3=C(C=CC(=C3)Cl)O
In short: as §1

[2] = compound: C1=CC(=C(C=C1Cl)C2=NC3=NC=CN=C3C(=N2)NC4=CC=NC=C4)F
In short: as §1

[3] = compound: C1=CC(=CC=C1C2=NC3=C(N2)C=C(C=C3)C(=O)N)OC4=CC=C(C=C4)Cl
In short: as §1

[4] = compound: C1=CC2=C(C=CC(=C2)/C=C\3/C(=O)NC(=NCC4=CC=CS4)S3)N=C1
In short: as §1

[5] = compound: C1=CC2=NC=CN=C2C=C1/C=C/3\C(=O)NC(=O)S3
In short: as §1

[6] = compound: C1=CC=C(C=C1)C2=NC(=C(N2)C3=CC=NC=C3)C4=CC(=C(C=C4)Cl)O
In short: as §1

[7] = compound: C1=CC=C2C(=C1)C3=NNC4=CC=CC(=C43)C2=O
In short: as §1

[8] = compound: C1CCN(C1)C(=O)NC2=CC=CC(=C2)NC3=NC=C(C(=N3)NCCC4=CN=CN4)Br
In short: as §1

[9] = compound: C1CN(CCC1(CC2=CC=C(C=C2)Cl)N)C3=NC=NC4=C3C=CN4
In short: as §1

IRAK-1-4 Inhibitor I = compound: C1COCCN1CCN2C3=CC=CC=C3N=C2NC(=O)C4=CC(=CC=C4)[N+](=O)[O-] [IRAK-1-4 Inhibitor I]
In short: as §1

ibrutinib = compound: C=CC(=O)N1CCC[C@@H](n2nc(-c3ccc(Oc4ccccc4)cc3)c3c(N)ncnc32)C1 [ibrutinib]
In short: as §1

[10] = compound: CC(=O)c1cnc2ccc(-c3cc(Cl)c(O)c(Cl)c3)nc2c1N[C@H]1CC[C@H](CN(C)C)CC1
In short: as §1

ralimetinib = compound: CC(C)(C)Cn1c(N)nc2ccc(-c3[nH]c(C(C)(C)C)nc3-c3ccc(F)cc3)nc21 [ralimetinib]
In short: as §1

[11] = compound: CC(C)(O)CC(=O)NCCn1ccc2ncnc(Nc3ccc(Oc4cccc(C(F)(F)F)c4)c(Cl)c3)c21
In short: as §1

[12] = compound: CC(C)C1=C2N=C(C=C(N2N=C1)NCC3=CC=CC=C3)NCCCCCCN
In short: as §1

[13] = compound: CC(C)C[C@@H](C=O)NC(=O)[C@H](CC(C)C)NC(=O)[C@H](CC(C)C)NC(=O)OCc1ccccc1
In short: as §1

pinometostat = compound: CC(C)N(C[C@H]1O[C@@H](n2cnc3c(N)ncnc32)[C@H](O)[C@@H]1O)[C@H]1C[C@@H](CCc2nc3cc(C(C)(C)C)ccc3[nH]2)C1 [pinometostat]
In short: as §1

[14] = compound: CC1=C(C2=C(C=C1)C(=O)C3=CC=CC=C3N2CCCN)C
In short: as §1

[15] = compound: CC1=C(C(CC(=O)N1)C2=CC=C(C=C2)C(F)(F)F)C(=O)NC3=C(C=C4C(=C3)C=NN4)F
In short: as §1

| Target | log2 fold change (erlotinib) | log2 fold change [1] | log2 fold change [2] | log2 fold change [3] | log2 fold change [4] | log2 fold change [5] | log2 fold change [6] | log2 fold change [7] | log2 fold change [8] | log2 fold change [9] | log2 fold change (IRAK-1-4 Inhibitor I) | log2 fold change (ibrutinib) | log2 fold change [10] | log2 fold change (ralimetinib) | log2 fold change [11] | log2 fold change [12] | log2 fold change [13] | log2 fold change (pinometostat) | log2 fold change [14] | log2 fold change [15] |
| --- | --- | --- | --- | --- | --- | --- | --- | --- | --- | --- | --- | --- | --- | --- | --- | --- | --- | --- | --- | --- |
| XPO1 (UniProt O14980) | inactive: 0.019 | inactive: 0.118 | inactive: 0.045 | inactive: -0.06 | inactive: 0.061 | inactive: 0.041 | inactive: 0.051 | inactive: -0.036 | inactive: 0.002 | inactive: -0.027 | inactive: -0.013 | inactive: -0.045 | inactive: 0.011 | inactive: 0.018 | inactive: -0.196 | active: -0.282 | inactive: -0.04 | inactive: -0.013 | inactive: -0.011 | – |
| ZC3H8 (UniProt Q8N5P1) | inactive: -0.091 | inactive: -0.128 | inactive: -0.275 | inactive: 0.027 | inactive: -0.062 | inactive: 0.044 | inactive: -0.076 | inactive: -0.001 | inactive: 0.038 | inactive: -0.01 | inactive: -0.098 | inactive: 0.03 | inactive: 0.006 | inactive: 0.047 | inactive: 0.064 | inactive: 0.177 | inactive: 0.045 | inactive: 0.017 | inactive: -0.277 | – |
| YWHAQ (UniProt P27348) | inactive: -0.07 | inactive: 0.204 | inactive: 0.146 | inactive: -0.021 | inactive: -0.201 | inactive: 0.003 | inactive: 0.284 | inactive: 0.089 | inactive: -0.089 | inactive: 0.029 | inactive: 0.084 | inactive: 0.002 | inactive: 0.118 | inactive: 0.237 | inactive: -0.084 | inactive: -0.026 | inactive: -0.184 | inactive: -0.067 | inactive: -0.055 | – |
| ZDHHC5 (UniProt Q9C0B5) | inactive: 0.028 | inactive: 0.003 | inactive: -0.002 | inactive: 0.027 | inactive: 0.091 | inactive: 0.007 | inactive: 0.01 | inactive: -0.054 | inactive: -0.076 | inactive: 0.071 | inactive: -0.043 | inactive: 0.02 | inactive: -0.049 | inactive: -0.001 | inactive: 0.033 | inactive: 0.007 | inactive: -0.029 | inactive: -0.02 | inactive: 0.08 | – |
| ZADH2 (UniProt Q8N4Q0) | inactive: 0.005 | active: 0.372 | inactive: -0.011 | inactive: 0.052 | inactive: 0.042 | inactive: -0.05 | inactive: 0.121 | inactive: 0.03 | inactive: 0.001 | inactive: 0.008 | inactive: 0.036 | inactive: 0.125 | inactive: -0.131 | inactive: 0.169 | active: -0.323 | inactive: -0.019 | inactive: -0.045 | inactive: 0 | inactive: 0.038 | – |
| ZNF143 (UniProt P52747) | inactive: 0.021 | inactive: 0.127 | inactive: -0.058 | inactive: 0.039 | inactive: -0.028 | inactive: 0.045 | inactive: 0.093 | inactive: -0.077 | inactive: -0.058 | inactive: 0.085 | inactive: 0.108 | inactive: 0.01 | inactive: -0.044 | inactive: 0.112 | inactive: 0.028 | inactive: -0.158 | inactive: -0.119 | inactive: 0.014 | inactive: -0.043 | – |
| XXYLT1 (UniProt Q8NBI6) | inactive: 0.007 | inactive: -0.022 | inactive: 0.022 | inactive: -0.007 | inactive: 0.022 | inactive: 0.049 | inactive: -0.034 | inactive: 0.003 | inactive: -0.005 | inactive: -0.001 | inactive: 0 | inactive: -0.039 | inactive: -0.006 | inactive: -0.007 | inactive: 0.003 | inactive: -0.006 | inactive: -0.014 | inactive: -0.004 | inactive: 0.019 | inactive: 0.01 |
| XPNPEP3 (UniProt Q9NQH7) | inactive: 0.019 | active: -0.275 | inactive: 0.017 | inactive: 0.06 | inactive: 0.067 | inactive: 0.026 | inactive: -0.005 | inactive: 0 | inactive: 0.005 | inactive: 0.083 | inactive: 0.061 | inactive: 0.044 | inactive: 0.019 | inactive: -0.013 | inactive: 0.021 | inactive: -0.002 | inactive: -0.018 | inactive: -0.015 | inactive: -0.028 | – |
| ZMAT2 (UniProt Q96NC0) | inactive: -0.017 | inactive: 0.001 | inactive: 0.018 | inactive: 0.019 | inactive: -0.063 | inactive: -0.015 | inactive: -0.042 | inactive: 0.018 | inactive: 0.017 | inactive: 0.058 | inactive: 0.11 | inactive: 0.025 | inactive: -0.001 | inactive: -0.024 | inactive: -0.016 | inactive: 0.138 | inactive: 0.049 | inactive: -0.037 | inactive: -0.04 | – |
| ZBTB21 (UniProt Q9ULJ3) | inactive: 0.235 | inactive: 0.068 | inactive: -0.022 | inactive: 0.053 | inactive: -0.024 | inactive: 0.156 | inactive: -0.067 | inactive: 0.006 | inactive: 0.107 | inactive: 0.024 | inactive: 0.006 | inactive: -0.174 | active: -0.42 | inactive: 0.121 | inactive: 0.101 | inactive: -0.027 | inactive: -0.013 | inactive: 0.209 | inactive: -0.183 | – |
| ZDHHC3 isoform 2 (UniProt Q9NYG2) | inactive: 0.005 | inactive: 0.049 | inactive: 0.074 | inactive: -0.012 | inactive: 0.076 | inactive: 0.011 | inactive: 0.045 | inactive: -0.02 | inactive: -0.03 | inactive: -0.023 | inactive: 0.061 | inactive: -0.008 | inactive: -0.051 | inactive: -0.125 | inactive: -0.151 | inactive: -0.167 | inactive: 0.059 | inactive: 0 | inactive: -0.013 | inactive: 0.019 |
| ZDHHC20 (UniProt Q5W0Z9) | inactive: 0.163 | inactive: -0.048 | inactive: 0.152 | inactive: 0.14 | inactive: -0.125 | inactive: 0.095 | inactive: -0.232 | inactive: -0.044 | inactive: -0.025 | inactive: 0.059 | inactive: -0.044 | inactive: -0.004 | inactive: 0.026 | inactive: -0.187 | inactive: -0.082 | inactive: -0.229 | inactive: -0.153 | inactive: 0.025 | inactive: 0.028 | – |
| XRCC2 (UniProt O43543) | inactive: -0.014 | – | inactive: -0.046 | inactive: 0.081 | – | – | – | – | – | – | – | – | – | – | inactive: -0.07 | inactive: 0.009 | – | – | – | inactive: 0.031 |
| ZNF207 isoform 2 (UniProt O43670) | inactive: -0.194 | inactive: -0.078 | inactive: 0.056 | inactive: -0.097 | inactive: -0.322 | inactive: 0.083 | inactive: 0.04 | inactive: 0.123 | inactive: 0.022 | inactive: -0.144 | – | inactive: -0.037 | inactive: -0.164 | inactive: -0.049 | inactive: 0.005 | inactive: -0.071 | inactive: 0.003 | – | inactive: 0.02 | inactive: 0.129 |
| ZFAND1 (UniProt Q8TCF1) | inactive: -0.102 | – | – | inactive: -0.01 | – | inactive: -0.006 | inactive: 0.038 | – | inactive: -0.251 | inactive: 0.063 | inactive: 0.141 | inactive: -0.019 | – | inactive: 0.306 | – | inactive: -0.138 | inactive: -0.307 | inactive: 0.235 | inactive: -0.088 | inactive: -0.005 |
| XIRP2 isoform 8 (UniProt A4UGR9) | inactive: -0.014 | inactive: -0.258 | – | inactive: 0.078 | inactive: 0.063 | inactive: 0.104 | – | inactive: 0.012 | inactive: -0.137 | inactive: 0.078 | – | inactive: 0.018 | inactive: 0.038 | – | – | inactive: -0.114 | – | – | inactive: 0.216 | inactive: 0.011 |
| ZER1 (UniProt Q7Z7L7) | inactive: 0.086 | inactive: 0.019 | inactive: -0.022 | inactive: -0.311 | inactive: -0.016 | inactive: 0.031 | inactive: 0.012 | inactive: -0.009 | inactive: -0.015 | inactive: 0.043 | inactive: 0.025 | inactive: 0.001 | inactive: 0.009 | inactive: 0.089 | inactive: -0.104 | inactive: -0.072 | inactive: 0.039 | inactive: 0.098 | inactive: -0.017 | – |
| ZFR (UniProt Q96KR1) | inactive: 0.1 | – | inactive: -0.444 | inactive: -0.049 | – | inactive: 0.014 | inactive: -0.044 | – | inactive: -0.039 | inactive: -0.17 | inactive: -0.032 | inactive: 0.01 | – | inactive: 0.201 | inactive: 0.222 | inactive: 0.184 | inactive: 0.041 | inactive: 0.178 | inactive: 0.005 | inactive: -0.165 |

Copied from the list.
log2 fold change [4] with XPNPEP3 (UniProt Q9NQH7) reads inactive: 0.067
log2 fold change [5] with ZNF207 isoform 2 (UniProt O43670) reads inactive: 0.083
